Laboratory results as given in publication PMC12017883.
No constants are given. Whether binding was seen depends on the method and setting. In cells and extracts the contact can be indirect. A yes stands for co-enrichment or nearness to the bait. Other partners may have been found.

The chains behind the UniProt entries cited, without tags or fusion partners. Where a name states a change or a piece, a line headed by the entry shows the natural chain unless it says otherwise.
UniProt P00441: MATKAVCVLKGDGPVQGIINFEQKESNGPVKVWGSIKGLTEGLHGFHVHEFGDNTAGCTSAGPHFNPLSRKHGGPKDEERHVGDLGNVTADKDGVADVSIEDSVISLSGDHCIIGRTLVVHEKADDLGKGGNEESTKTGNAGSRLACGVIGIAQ

Biological target: human mtSOD1-L126delTT with a FLAG sequence at the C terminus (human) (UniProt P00441)
Assay: affinity purification with mass spectrometry; anti-FLAG M2 IP (5 ug antibody, protein A/G magnetic beads) from the nuclear fraction of DF7 cells (500 ug total protein); control IP with monoclonal mouse IgG (MOPC 21); DIA proteomics; hits: log2 FC >= 2 over control or missing in the control IP

B1: Adenosine 3'-phospho 5'-phosphosulfate transporter 1 (protein, UniProt Q91ZN5 1-431)
chain: MDARWWAVVVLATLPSLGAGGESPEAPPQSWTQLWLFRFLLNVAGYASFMVPGYLLVQYLRRKNYLETGRGLCFPLVKACVFGNEPKAPDEVLLAPRTETAESTPSWQVLKLVFCASGLQVSYLTWGILQERVMTGSYGATATSPGEHFTDSQFLVLMNRVLALVVAGLYCVLRKQPRHGAPMYRYSFASLSNVLSSWCQYEALKFVSFPTQVLAKASKVIPVMMMGKLVSRRSYEHWEYLTAGLISIGVSMFLLSSGPEPRSSPATTLSGLVLLAGYIAFDSFTSNWQDALFAYKMSSVQMMFGVNLFSCLFTVGSLLEQGALLEGARFMGRHSEFALHALLLSICSAFGQLFIFYTIGQFGAAVFTIIMTLRQAIAILLSCLLYGHTVTVVGGLGVAVVFTALLLRVYARGRKQRGKKAVPTEPPVQKV
binding: binds

B2: Hnrnpr (protein, UniProt Q8VHM5 1-632)
chain: MANQVNGNAVQLKEEEEPMDTSSVTHTEHYKTLIEAGLPQKVAERLDEIFQTGLVAYVDLDERAIDALREFNEEGALSVLQQFKESDLSHVQNKSAFLCGVMKTYRQREKQGSKVQESTKGPDEAKIKALLERTGYTLDVTTGQRKYGGPPPDSVYSGVQPGIGTEVFVGKIPRDLYEDELVPLFEKAGPIWDLRLMMDPLSGQNRGYAFITFCGKEAAQEAVKLCDSYEIRPGKHLGVCISVANNRLFVGSIPKNKTKENILEEFSKVTEGLVDVILYHQPDDKKKNRGFCFLEYEDHKSAAQARRRLMSGKVKVWGNVVTVEWADPVEEPDPEVMAKVKVLFVRNLATTVTEEILEKSFSEFGKLERVKKLKDYAFVHFEDRGAAVKAMDEMNGKEIEGEEIEIVLAKPPDKKRKERQAARQASRSTAYEDYYYHPPPRMPPPMRGRGRGGRGGYGYPPDYYGYEDYYDDYYGYDYHDYRGGYEDPYYGYDDGYAVRGRGGGRGGRGAPPPPRGRGAPPPRGRAGYSQRGAPLGPPRGSRGGRGGPAQQQRGRGSRGARGNRGGNVGGKRKADGYNQPDSKRRQTNNQQNWGSQPIAQQPLQQGGDYSGNYGYNNDNQEFYQDTYGQQWK
binding: binds

B3: Mtdh (protein, UniProt Q80WJ7 1-579)
chain: MAARSWQDELAQQAEEGSARLRELLSVGLGFLRTELGLDLGLEPKRYPGWVILVGTGALGLLLLFLLGYGWAAACAGARKKRRSPPRKREEAAPPTPAPDDLAQLKNLRSEEQKKKNRKKLPEKPKPNGRTVEVPEDEVVRNPRSITAKQAPETDKKNEKSKKNKKKSKSDAKAVQNSSRHDGKEVDEGAWETKISHREKRQQRKRDKVLTDSGSLDSTIPGIENIITVTTEQLTTASFPVGSKKNKGDSHLNVQVSNFKSGKGDSTLQVSSRLNENLTVNGGGWSEKSVKLSSQLSEEKWNSVPPASAGKRKTEPSAWTQDTGDTNANGKDWGRNWSDRSIFSGIGSTAEPVSQSTTSDYQWDVSRNQPYIDDEWSGLNGLSSADPSSDWNAPAEEWGNWVDEDRASLLKSQEPISNDQKVSDDDKEKGEGALPTGKSKKKKKKKKKQGEDNSHTQDTEDLEKDTREELPVNTSKARPKQEKACSLKTMSTSDPAEVLIKNSQPVKTLPPAISAEPSITLSKGDSDNSSSQVPPMLQDTDKPKSNAKQNSVPPSQTKSETNWESPKQIKKKKKARRET
binding: binds

B4: Dhx36 (protein, UniProt Q8VHK9 1-1001)
chain: MSYDYHQSWSRDGGPRGSGQGSSGGGGGGSRGSGGGGGGRGGRGRHPAHLKGREIGLWYAKKQTQKNKEAERQERAVVHMDERREEQIVQLLNSVQAKTDKDSEAQISWFAPEDHGYGTEVSSEKKINSEKKLDNQEKKLLNQEKKTFRITDKSYIDRDSEYLLQENEPNLSLDQHLLEDLQRKKTDPRYIEMQRFRKKLPSYGMQKELVNLINNHQVTVISGETGCGKTTQVTQFILDNYIERGKGSACRIVCTQPRRISAISVAERVATERAESCGNGNSTGYQIRLQSRLPRKQGSILYCTTGIILQWLQSDSRLSSVSHIVLDEIHERNLQSDVLMTVIKDLLHFRSDLKVILMSATLNAEKFSEYFGNCPMIHIPGFTFPVVEYLLEDIIEKIRYVPDQKEHRSQFKRGFMQGHVNRQEKEEKEAIYKERWPAYIKELRTRYSASTVDVLQMMDDDKVDLNLIAALIRYIVLEEEDGAILVFLPGWDNISTLHDLLMSQVMFKSDKFLIIPLHSLMPTVNQTQVFKKTPPGVRKIVIATNIAETSITIDDVVYVIDGGKIKETHFDTQNNISTMSAEWVSKANAKQRKGRAGRVQPGHCYHLYNGLRASLLDDYQLPEILRTPLEELCLQIKILRLGGIAYFLSRLMDPPSNEAVVLSIKHLMELSALDKQEELTPLGVHLARLPVEPHIGKMILFGALFCCLDPVLTIAASLSFKDPFVIPLGKEKIADARRKELAKETRSDHLTVVNAFEGWEEAKRRGFRYEKDYCWEYFLSSNTLQMLHNMKGQFAEHLLGAGFVSSRSPKDPKANINSDNEKIIKAVICAGLYPKVAKIRLNLGKKRKMVKVHTKSDGLVSIHPKSVNVEQTDFHYNWLIYHLKMRTSSIYLYDCTEVSPYCLLFFGGDISIQKDKDQEIIAVDEWIVFQSPERIAHLVKGLRKELDSLLQEKIESPHPVDWDDTKSRDCAVLSAILDLIKTQEKATPRNLPPRSQDGYYS
binding: binds

B5: Ilf3 (protein, UniProt Q9Z1X4 1-898)
chain: MRPMRIFVNDDRHVMAKHSSVYPTQEELEAVQNMVSHTERALKAVSDWIDEQEKGNSELSEAENMDTPPDDESKEGAGEQKAEHMTRTLRGVMRVGLVAKGLLLKGDLDLELVLLCKEKPTTALLDKVADNLAIQLTTVTEDKYEILQSVDDAAIVIKNTKEPPLSLTIHLTSPVVREEMEKVLAGETLSVNDPPDVLDRQKCLAALASLRHAKWFQARANGLKSCVIVIRVLRDLCTRVPTWGPLRGWPLELLCEKSIGTANRPMGAGEALRRVLECLASGIVMPDGSGIYDPCEKEATDAIGHLDRQQREDITQSAQHALRLAAFGQLHKVLGMDPLPSKMPKKPKNENPVDYTVQIPPSTTYAITPMKRPMEEDGEEKSPSKKKKKIQKKEEKADPPQAMNALMRLNQLKPGLQYKLISQTGPVHAPIFTMSVEVDGSNFEASGPSKKTAKLHVAVKVLQDMGLPTGAEGRDSSKGEDSAEESDGKPAIVAPPPVVEAVSNPSSVFPSDATTEQGPILTKHGKNPVMELNEKRRGLKYELISETGGSHDKRFVMEVEVDGQKFQGAGSNKKVAKAYAALAALEKLFPDTPLALEANKKKRTPVPVRGGPKFAAKPHNPGFGMGGPMHNEVPPPPNIRGRGRGGNIRGRGRGRGFGGANHGGGYMNAGAGYGSYGYSSNSATAGYSQFYSNGGHSGNAGGGGSGGGGGSSSYSSYYQGDSYNSPVPPKHAGKKPLHGGQQKASYSSGYQSHQGQQQPYNQSQYSSYGTPQGKQKGYGHGQGSYSSYSNSYNSPGGGGGSDYSYDSKFNYSGSGGRSGGNSYGSSGSSSYNTGSHGGYGTGSGGSSSYQGKQGGYSSQSNYSSPGSSQSYSGPASSYQSSQGGYSRNTEHSMNYQYR
binding: binds

B6: Nono (protein, UniProt Q99K48 1-473)
chain: MQSNKAFNLEKQNHTPRKHHQHHHQQHHQQQQQQQQQQPPPPIPANGQQASSQNEGLTIDLKNFRKPGEKTFTQRSRLFVGNLPPDITEEEMRKLFEKYGKAGEVFIHKDKGFGFIRLETRTLAEIAKVELDNMPLRGKQLRVRFACHSASLTVRNLPQYVSNELLEEAFSVFGQVERAVVIVDDRGRPSGKGIVEFSGKPAARKALDRCSEGSFLLTTFPRPVTVEPMDQLDDEEGLPEKLVIKNQQFHKEREQPPRFAQPGSFEYEYAMRWKALIEMEKQQQDQVDRNIKEAREKLEMEMEAARHEHQVMLMRQDLMRRQEELRRMEELHNQEVQKRKQLELRQEEERRRREEEMRRQQEEMMRRQQEGFKGTFPDAREQEIRMGQMAMGGAMGINNRGAMPPAPVPPGTPAPPGPATMMPDGTLGLTPPTTERFGQAATMEGIGAIGGTPPAFNRPAPGAEFAPNKRRRY
binding: binds

B7: Gnl3 (protein, UniProt Q8CI11 1-538)
chain: MKRPKLKKASKRMTCHKRYKIQKKVREHHRKLRKEAKKRGHKKPRKDPGVPNSAPFKEALLREAELRKQQLEELKQQQKLDRQKEQERKRKLEVSPGDEQSNVETREESDEPKRKKAKAGKQNPKKLHCQELKKVIEASDIVLEVLDARDPLGCRCPQIEEAVIQSGSKKLILVLNKSDLVPKENLENWLNYLNKELPTVVFKASTNLKNRKTFKIKKKKVVPFQSKICCGKEALWKLLGDFQQSCGKDIQVGVIGFPNVGKSSVINSLKQEWICNVGISMGLTRSMQIVPLDKQITIIDSPCLIISPCNSPTALALRSPASIEELRPLEAASAILSQADNEQVVLKYTVPEYKDSLHFFTKLAQRRGLHQKGGSPNVESAAKLVWSEWTGASLGYYCHPPASWNHSLHFNENIAAVMKKGFNLEELEKNNAHSIQVLKGPHLTNRILFRSSGLTNGILDEKDIVEESPRQTEDKQDADDQENGSGERNAEISDVAPVEETRELSPEQSTAGKPSDGSSALDRASQEDETYDFTTDYI
binding: binds

B8: SCY1-like protein 2 (protein, UniProt Q8CFE4 1-930)
chain: MESMLNKLKSTVTKVTADVTSAVMGNPVTREFDVGRHIASGGNGLAWKIFNGTKKSTKQEVAVFVFDKKLIDKYQKFEKDQIIDSLKRGVQQLTRLRHPRLLTVQHPLEESRDCLAFCTEPVFASLANVLGNWENLPSSISPDIKDYKLYDVETKYGLLQVSEGLSFLHSSVKMVHGNVTPENVILNKSGAWKIMGFDFCVSSSNPSEQEPKFPCKEWDPNLPSLCLPNPEYLAPEYILSVSCETASDMYSLGAVMYAVFNQGRPIFEVNKQDIYKSFSRQLDQLSRLGSSSLTSIPEEVREHVKLLLNVTPTVRPDADQMTKIPFFDDVGAVTLQYFDTLFQRDNLQKSQFFKGLPKVLPKLPKRVIVQRILPCLTSEFVNPDMVPFVLPNVLLIAEECTKEEYIKLILPELGPVFKQQEPIQILLIFLQKMDLLLTKTPPDEIKNSVLPMVYRALEAPSIQIQELCLNIIPTFANLIDYPSMKNALIPRIKNACLQTSSLAVRVNSLVCLGKILEYLDKWFVLDDILPFLQQIPSKEPAVLMGILGIYKCTFTHKKLGITKEQLAGKVLPHLIPLSIENNLNLNQFSSFIAVIKEMLSRLESEHRTKLEQLHVMQEQQRSLDIGNQMSTSEETKVAHSGSQQIDKVFNNIGADLLSGSESENREDGMQGKQKRGSLTLEEKQKLAKEQEQAQKLKSQQPLKPQVHTPIAPIKQTKDLTDTLMENMSSLTSLSVSTPKISASSTFTPVPSTGLGMMFSTPIDNTKRNLTNGLNANMGFQTSGFSMPVNPNQNFFSGTGTAGVTTMSLGAPPTMSNFSPLTIPPASVKQPQQRPTDMSALNNLFGPQKPKVSMNQLSQQKPNQWLNQFAPPQGSPVMGSAAMGTQGNVMGQAAFGMQGNPFFNPQNFAQPPPTTMTSSSSASNDLKDLFG
binding: binds
